Percent effect of library compounds

Measurements from “University of Dundee, Small-Polar-MMV Screening Library” (2021), ChEMBL document CHEMBL3988442.

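Growth of Mycobacterium tuberculosis over 4 days (cholesterol / DPPC medium with tyloxapol); the read-out is not stated. Tested at 500 µM. The record gives no direction; compounds that gave an IC50 in retests scored well above the rest, so higher reads as more growth inhibition. Of about 18,000 compounds tested this way, about 900 (5%) reached 50% or more in at least one test.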

Each number is a percent effect as filed.
The record does not define 0% and 100%; most values in the screen are far below 50% and negative numbers occur (in some assays of this library far below -100).
This is an unselected part of the compounds tested.

With O=C(CN1CCNCC1)c1ccco1 the screen gave 65.05%. With CC(CNC(=O)C1=NN(C)C(=O)CC1)N1CCCC1 (stereo not shown) the screen gave -15.89%. CNC(=O)Cn1cc(-c2cccc3cnccc23)cn1 gave 0.8676%. Cc1cc(CS(=O)(=O)Cc2ccc(C(N)=O)cc2)no1 read -10.46%. N[C@@H]1CC[C@@H](NC(=O)c2cc3sccc3[nH]2)C1 read 26.3%.

With CCC1CCN(C(=O)C2(CN)CCCC2)C1 (stereo not shown) the screen gave 3.558%. NCc1cccc(-c2nccs2)c1 read 13.68%. With CCN1CCN(C(=O)CN2CCCCCCC2=O)CC1 the screen gave 8.308%. With NCc1cnn(-c2cccc(Cl)c2)c1 the screen gave 56.44%. Result for C1CN=C(NCCCOCC2CCCO2)NC1 (stereo not shown) was -1.795%.

With CC1=NOC(C(=O)NCCc2nc3c(s2)CCCC3)C1 (stereo not shown) the screen gave 46.78%. NCCNS(=O)(=O)c1ccccc1 read 4.548%. Result for CCCc1noc(CN2CCN(CC(O)CC)CC2)n1 (stereo not shown) was 4.224%. For Cc1nc(C)n(CC(=O)Nc2ccccc2)c(=O)c1C the result was -0.2189%. Result for CCNCc1cccnc1N(C)CCc1ccccn1 was 5.125%.

Result for COC(CNC(=O)NCC(C)(C)O)c1cccc(Cl)c1 (stereo not shown) was -7.01%. Cc1ccccc1CSCC(N)=O read 17.14%. OCCOCCNCc1ccc(-c2ccc(F)cc2)o1 gave 53.82%. Result for CN(C)CCC(=O)Nc1cccc(-c2ncco2)c1 was 16.5%. Result for C=C(C)CNC(=O)Nc1cccc(N2CCNC2=O)c1 was -22.24%.

For COC(=O)c1cnc(C)c(OC)c1 the result was -0.7389%. CN(CCN1CCCC1=O)C(=O)C1CCCO1 (stereo not shown) read 23.2%. CSCCC(O)C(=O)NCCc1cnccn1 (stereo not shown) read -11.7%. O=C(c1ccncc1)N1CCC2(CCCCO2)CC1 read 8.071%. With Cc1cc(Br)cc(C(=O)NCc2nccc(N)n2)c1 the screen gave 80.48%.

For O=C(NCCc1cccs1)C1CCNCC1 the result was 13.46%. Result for COc1ccccc1OC1CN(c2nccc(N)n2)C1 was 10.75%. CN(C(=O)[C@@H](N)Cc1ccccc1)C1CCCC1 gave 29.5%. With CNCc1nc2c(s1)CCCC2 the screen gave 56.84%. COc1ccc(CC(=O)N2CCNC2=O)cc1 gave 6.728%.

For CCN(CC)C(=O)NCC[S+]([O-])C(C)(C)C (stereo not shown) the result was 6.07%. With CC(=O)Nc1cncc(Cl)n1 the screen gave -9.494%. CN1CCOCC1C(=O)NCCCNc1ccccc1 (stereo not shown) gave 11.74%. Cc1ccc(NC(=O)NC2CCN(C)CC2)cc1 read -18.94%. CN(C)CCNCCOCCO read -15.59%.

C[C@@H]1CNC(=O)C[C@H](C)O1 gave -24.47%. COC(C)(C)c1noc(-c2cccc(C)n2)n1 read -8.636%. c1ccc(CCNC2CC2)nc1 read -2.479%. With COC(=O)c1ccccc1NC(=O)N1CC[C@@H](O)C1 the screen gave -0.02539%. For Nc1ncc(I)cc1F the result was -25.19%.

Cn1cc(CNS(=O)(=O)Cc2ccccc2)cn1 gave 8.499%. CNCc1cc2ccccc2nc1O gave 18.04%. Result for CCc1nsc(N2CCN(CCC(=O)NC)CC2)n1 was 9.746%. Result for CC1COCCN1Cc1cn2ccccc2n1 (stereo not shown) was -15.84%. CN(C)c1cc(CNC(=O)C2CCCO2)ccn1 (stereo not shown) gave 9.317%.

Result for Cc1ccc(CCC(=O)N2CC[C@H](N)C2)c(C)c1 was 11.8%. O=C(NCc1ccc2c(c1)OCCCO2)c1cscn1 gave 65.46%.

The last 4 entries again:

Compound,Percent Effect
CC1COCCN1Cc1cn2ccccc2n1 (stereo not shown),-15.84
CN(C)c1cc(CNC(=O)C2CCCO2)ccn1 (stereo not shown),9.317
Cc1ccc(CCC(=O)N2CC[C@H](N)C2)c(C)c1,11.8
O=C(NCc1ccc2c(c1)OCCCO2)c1cscn1,65.46